Structures can show the parent of a compound that is named as a salt. The list shows a part of the results. Single values of this set are uncertain.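 Yeast growth was read as optical density at 600 nm. The two-hybrid strains grew without histidine, so growth needed the Pex3–Pex19 binding; a compound counted as trypanosome-selective if it cut growth of the trypanosome-pair strain by more than 65% and the human-pair strain by less than 65%.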
What was measured:
[1] = tested on: Saccharomyces cerevisiae HF7c pdr5Δ; assay: general growth inhibition of yeast HF7c pdr5Δ in -Leu -Trp medium, relative to DMSO; higher = stronger general growth inhibition; details: 100 µM; 24 h
[2] = tested on: human PEX3-PEX19 interaction (yeast two-hybrid); assay: growth inhibition of yeast two-hybrid strain reporting HsPex3-HsPex19 interaction, relative to DMSO; higher = stronger inhibition of human Pex3-Pex19 interaction / growth; details: 100 µM; 24 h; 3-aminotriazole 10 mM
[3] = tested on: T. brucei Pex3-Pex19 interaction (yeast two-hybrid); assay: growth inhibition of yeast two-hybrid strain reporting TbPex3-TbPex19 interaction, relative to DMSO; higher = stronger inhibition of T. brucei Pex3-Pex19 interaction / growth; details: 100 µM; 24 h

| Structure (SMILES) | general growth inhibition [1] [%] | growth inhibition [2] [%] | growth inhibition [3] [%] |
| --- | --- | --- | --- |
| CN(C(=O)CCCOc1ccc2[nH]c(=O)ccc2c1)C1CCCCC1 [Cilostamide] | 48 | 49.2 | 56.3 |
| CCCCCCCCCCCCCCCCCCN(CCCCCCCCCCCCCCCCCC)CCCN(CCO)CCO [Avridine] | 51.1 | 55.7 | 63 |
| CCCCCC(O)CCCC(=O)O (stereo unspecified) [5-hydroxydecanoic acid sodium] | 35.1 | 26.4 | 58.3 |
| C=C1C[C@@]23CC[C@H]4[C@@](C)(CCC[C@@]4(C)C(=O)O)[C@@H]2CC[C@]1(O)C3 [Steviol] | 47.4 | 28.3 | 37.4 |
| CN1CC(=O)N=C1NC(=O)Nc1cccc(Cl)c1 [Fenobam] | 37.8 | 41.3 | 58.1 |
| CN(C)CCC=C1c2ccccc2COc2ccccc21 [Doxepin hydrochloride] | 31.9 | 40 | 55.5 |
| Nc1c2c(nc3ccccc13)CCCC2 [9-Amino-1,2,3,4-tetrahydroacridine hydrochloride] | 46.8 | 44 | 58.9 |
| Oc1ccc(-c2nc(-c3ccc(F)cc3)c(-c3ccncc3)[nH]2)cc1 | 39.9 | 36.5 | 55.2 |
| C[C@]12CC[C@@H]3c4ccc(O)cc4CC[C@H]3[C@@H]1CCC2=O [Estrone] | 34.1 | 32.1 | 45.4 |
| Cc1ccc(C(=O)Nc2ccc(S(=O)(=O)O)c3cc(S(=O)(=O)O)cc(S(=O)(=O)O)c23)cc1NC(=O)c1cccc(NC(=O)Nc2cccc(C(=O)Nc3cc(C(=O)Nc4ccc(S(=O)(=O)O)c5cc(S(=O)(=O)O)cc(S(=O)(=O)O)c45)ccc3C)c2)c1 [Suramin sodium salt] | 52.8 | 44.3 | 63 |
| CCCNC(=O)NS(=O)(=O)c1ccc(Cl)cc1 [Chlorpropamide] | 32 | 39.7 | 50.8 |
| CC[C@H](CO)Nc1nc(NCc2ccccc2)c2ncn(C(C)C)c2n1 [Roscovitine] | 32.7 | 31.6 | 55.2 |
| COc1ccc(-c2ccc(=N)n(CCCC(=O)O)n2)cc1 | 53.9 | 44.2 | 62.1 |
| CC1(C)CCC=[N+]1[O-] [5,5-Dimethyl-1-pyrroline-N-oxide] | 34.3 | 41.7 | 66.6 |
| COc1cc2ncnc(Nc3cccc(Cl)c3)c2cc1OC [Tyrphostin AG 1478] | 41.9 | 33.9 | 43.9 |
| CC(C)[N+](C)(CCOC(=O)C1c2ccccc2Oc2ccccc21)C(C)C [Propantheline bromide] | 41.8 | 50 | 58.1 |
| CCCCCCCCCCC(C)(C)C(=O)Nc1c(OC)cc(OC)cc1OC | 47.3 | 37.7 | 58 |
| NCC(O)c1ccc(O)c(O)c1 (racemic) [(±)-Norepinephrine (+)bitartrate] | 50.9 | 41.1 | 58.9 |
| CCN(CC)CCCN(c1ccccc1)C1Cc2ccccc2C1 [Aprindine hydrochloride] | 51.9 | 42.3 | 60.5 |
| CC(=O)OCC1=C(C(=O)O)N2C(=O)[C@@H](NC(=O)Cc3cccs3)[C@H]2SC1 [Cephalothin sodium] | 38.4 | 42.1 | 61.7 |
| NS(=O)(=O)c1cccc2c1c([N+](=O)[O-])cc1nc(O)c(O)nc12 [NBQX disodium] | 48 | 41.5 | 63.6 |
| Nc1ncnc2c1nc(Br)n2C1OC2COP(=O)(O)O[C@@H]2C1O (stereo partly specified) [8-Bromo-cAMP sodium] | 48.9 | 41.5 | 65.8 |
| NC[C@@H]1O[C@H](O[C@H]2[C@@H](O)[C@H](O[C@@H]3[C@@H](O)[C@H](N)C[C@H](N)[C@H]3O[C@H]3O[C@H](CO)[C@@H](O)[C@H](O)[C@H]3N)O[C@@H]2CO)[C@H](N)[C@@H](O)[C@@H]1O [Paromomycin sulfate] | 37.8 | 41 | 64.2 |
| NC(N)=NC(N)=Nc1ccccc1 [1-Phenylbiguanide] | 48 | 40.3 | 68.4 |
| COc1cc2nc(N3CCN(C(=O)C4COc5ccccc5O4)CC3)nc(N)c2cc1OC (stereo unspecified) [Doxazosin mesylate] | 7.81 | 4.77 | 45.1 |
| O=[N+]([O-])c1ccc(CSc2ncnc3c2ncn3[C@@H]2O[C@H](CO)[C@@H](O)[C@H]2O)cc1 [S-(4-Nitrobenzyl)-6-thioinosine] | 40.7 | 46.7 | 72.9 |
| CN(C)CCCC1(c2ccc(F)cc2)OCc2cc(C#N)ccc21 (stereo unspecified) [Citalopram hydrobromide] | 49.3 | 31.6 | 61.8 |

Another view of part of the listing above:
Structure (SMILES)	general growth inhibition [1] [%]	growth inhibition [2] [%]	growth inhibition [3] [%]
CCCCCC(O)CCCC(=O)O (stereo unspecified) [5-hydroxydecanoic acid sodium]	35.1	26.4	58.3
CC(C)[N+](C)(CCOC(=O)C1c2ccccc2Oc2ccccc21)C(C)C [Propantheline bromide]	41.8	50	58.1

Reference: the supplement of paper PMC8326762, “A Small Molecule Inhibitor of Pex3–Pex19 Interaction Disrupts Glycosome Biogenesis and Causes Lethality in Trypanosoma brucei” (Frontiers in Cell and Developmental Biology, 2021)
